Measurements reported in PubChem BioAssay AID1508597 (Cure First, 2020)
This is an unselected part of about 2,100 reagents. 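Calls flag viability under 80% in either arm, not effects specific to rucaparib; the reference for percent is not stated.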 Not stated in the record: the 100% reference.

Test: 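Genes whose silencing sensitises or protects ovarian cancer cells against rucaparib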 (primary screen)
Cells: human ovarian carcinoma lines grown from tumours: OCI-P5x (papillary serous) and OCI-C5x (clear cell)
Reagents: siRNA pool against human genes, 1.25 pmol siRNA per well
Timing: 72 h or 96 h, depending on the cell culture
Challenge: rucaparib 20 µM (about IC30) or vehicle, present until read-out
Detection: 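ATP luminescence measured at 72 or 96 h according to the culture, then normalised and expressed as percent viability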
Direction: viability, normalised: higher = more viable cells remaining
Rule for the call: 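a well counts as a hit if its normalised viability is under 80 percent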
Calls: active = viability under 80%; inactive = viability 80% or more

With CNR2 (GeneID 1269), rucaparib or vehicle Rucaparib, cell line OCI-C5x (clear cell), technical replicate 1, how do the results read?
viability, normalised (%): 49.2; Call: active

For CNR2 (GeneID 1269), rucaparib or vehicle Rucaparib, cell line OCI-C5x (clear cell), technical replicate 2, what does the deposit list?
viability, normalised (%): 59.5; Call: active

For CNR2 (GeneID 1269), rucaparib or vehicle Rucaparib, cell line OCI-C5x (clear cell), technical replicate 3, what was measured?
viability, normalised (%): 44.6; Call: active

For CNR2 (GeneID 1269), rucaparib or vehicle Rucaparib, cell line OCI-P5x (serous), technical replicate 1, how do the results read?
viability, normalised (%): 66.3; Call: active

For CNR2 (GeneID 1269), rucaparib or vehicle Rucaparib, cell line OCI-P5x (serous), technical replicate 2, what was measured?
viability, normalised (%): 79.5; Call: active

What is on record for CNR2 (GeneID 1269), rucaparib or vehicle Rucaparib, cell line OCI-P5x (serous), technical replicate 3?
viability, normalised (%): 81.2; Call: inactive

With CNR2 (GeneID 1269), rucaparib or vehicle Vehicle, cell line OCI-C5x (clear cell), technical replicate 1, what was measured?
viability, normalised (%): 39.4; Call: active

How did the screen score CNR2 (GeneID 1269), rucaparib or vehicle Vehicle, cell line OCI-C5x (clear cell), technical replicate 2?
viability, normalised (%): 54.5; Call: active

How did the screen score CNR2 (GeneID 1269), rucaparib or vehicle Vehicle, cell line OCI-C5x (clear cell), technical replicate 3?
viability, normalised (%): 35.7; Call: active

For CNR2 (GeneID 1269), rucaparib or vehicle Vehicle, cell line OCI-P5x (serous), technical replicate 1, what does the deposit list?
viability, normalised (%): 62.5; Call: active

With CNR2 (GeneID 1269), rucaparib or vehicle Vehicle, cell line OCI-P5x (serous), technical replicate 2, what was measured?
viability, normalised (%): 74.8; Call: active

What did the screen give for CNR2 (GeneID 1269), rucaparib or vehicle Vehicle, cell line OCI-P5x (serous), technical replicate 3?
viability, normalised (%): 71.9; Call: active

For HERC3 (GeneID 8916), rucaparib or vehicle Rucaparib, cell line OCI-C5x (clear cell), technical replicate 1, what does the deposit list?
viability, normalised (%): 53.3; Call: active

With HERC3 (GeneID 8916), rucaparib or vehicle Rucaparib, cell line OCI-C5x (clear cell), technical replicate 2, what was measured?
viability, normalised (%): 34.7; Call: active

How did the screen score HERC3 (GeneID 8916), rucaparib or vehicle Rucaparib, cell line OCI-C5x (clear cell), technical replicate 3?
viability, normalised (%): 50.4; Call: active

For HERC3 (GeneID 8916), rucaparib or vehicle Rucaparib, cell line OCI-P5x (serous), technical replicate 1, what does the deposit list?
viability, normalised (%): 86.1; Call: inactive

With HERC3 (GeneID 8916), rucaparib or vehicle Rucaparib, cell line OCI-P5x (serous), technical replicate 2, how do the results read?
viability, normalised (%): 78.6; Call: active

Which result is listed for HERC3 (GeneID 8916), rucaparib or vehicle Rucaparib, cell line OCI-P5x (serous), technical replicate 3?
viability, normalised (%): 84.4; Call: inactive

Which result is listed for HERC3 (GeneID 8916), rucaparib or vehicle Vehicle, cell line OCI-C5x (clear cell), technical replicate 1?
viability, normalised (%): 55.2; Call: active

What did the screen give for HERC3 (GeneID 8916), rucaparib or vehicle Vehicle, cell line OCI-C5x (clear cell), technical replicate 2?
viability, normalised (%): 66.6; Call: active

How did the screen score HERC3 (GeneID 8916), rucaparib or vehicle Vehicle, cell line OCI-C5x (clear cell), technical replicate 3?
viability, normalised (%): 42.7; Call: active

For HERC3 (GeneID 8916), rucaparib or vehicle Vehicle, cell line OCI-P5x (serous), technical replicate 1, what was measured?
viability, normalised (%): 37.4; Call: active

What is on record for HERC3 (GeneID 8916), rucaparib or vehicle Vehicle, cell line OCI-P5x (serous), technical replicate 2?
viability, normalised (%): 65.9; Call: active

What did the screen give for HERC3 (GeneID 8916), rucaparib or vehicle Vehicle, cell line OCI-P5x (serous), technical replicate 3?
viability, normalised (%): 112; Call: inactive

For CXXC4 (GeneID 80319), rucaparib or vehicle Rucaparib, cell line OCI-C5x (clear cell), technical replicate 1, what was measured?
viability, normalised (%): 44.1; Call: active

What is on record for CXXC4 (GeneID 80319), rucaparib or vehicle Rucaparib, cell line OCI-C5x (clear cell), technical replicate 2?
viability, normalised (%): 48.9; Call: active

For CXXC4 (GeneID 80319), rucaparib or vehicle Rucaparib, cell line OCI-C5x (clear cell), technical replicate 3, what was measured?
viability, normalised (%): 34.9; Call: active

For CXXC4 (GeneID 80319), rucaparib or vehicle Rucaparib, cell line OCI-P5x (serous), technical replicate 1, what does the deposit list?
viability, normalised (%): 72.6; Call: active

With CXXC4 (GeneID 80319), rucaparib or vehicle Rucaparib, cell line OCI-P5x (serous), technical replicate 2, how do the results read?
viability, normalised (%): 70.3; Call: active

With CXXC4 (GeneID 80319), rucaparib or vehicle Rucaparib, cell line OCI-P5x (serous), technical replicate 3, how do the results read?
viability, normalised (%): 72.7; Call: active

Which result is listed for CXXC4 (GeneID 80319), rucaparib or vehicle Vehicle, cell line OCI-C5x (clear cell), technical replicate 1?
viability, normalised (%): 33.5; Call: active

For CXXC4 (GeneID 80319), rucaparib or vehicle Vehicle, cell line OCI-C5x (clear cell), technical replicate 2, what was measured?
viability, normalised (%): 34.2; Call: active

With CXXC4 (GeneID 80319), rucaparib or vehicle Vehicle, cell line OCI-C5x (clear cell), technical replicate 3, what was measured?
viability, normalised (%): 29.5; Call: active

How did the screen score CXXC4 (GeneID 80319), rucaparib or vehicle Vehicle, cell line OCI-P5x (serous), technical replicate 1?
viability, normalised (%): 66.3; Call: active

Which result is listed for CXXC4 (GeneID 80319), rucaparib or vehicle Vehicle, cell line OCI-P5x (serous), technical replicate 2?
viability, normalised (%): 87.7; Call: inactive

For CXXC4 (GeneID 80319), rucaparib or vehicle Vehicle, cell line OCI-P5x (serous), technical replicate 3, what was measured?
viability, normalised (%): 70.3; Call: active

How did the screen score PRDM1 (GeneID 639), rucaparib or vehicle Rucaparib, cell line OCI-C5x (clear cell), technical replicate 1?
viability, normalised (%): 39.9; Call: active

With PRDM1 (GeneID 639), rucaparib or vehicle Rucaparib, cell line OCI-C5x (clear cell), technical replicate 2, what does the deposit list?
viability, normalised (%): 37.3; Call: active

With PRDM1 (GeneID 639), rucaparib or vehicle Rucaparib, cell line OCI-C5x (clear cell), technical replicate 3, what does the deposit list?
viability, normalised (%): 29.2; Call: active

With PRDM1 (GeneID 639), rucaparib or vehicle Rucaparib, cell line OCI-P5x (serous), technical replicate 1, what does the deposit list?
viability, normalised (%): 29.7; Call: active

With PRDM1 (GeneID 639), rucaparib or vehicle Rucaparib, cell line OCI-P5x (serous), technical replicate 2, what was measured?
viability, normalised (%): 48; Call: active

Which result is listed for PRDM1 (GeneID 639), rucaparib or vehicle Rucaparib, cell line OCI-P5x (serous), technical replicate 3?
viability, normalised (%): 44.3; Call: active

For PRDM1 (GeneID 639), rucaparib or vehicle Vehicle, cell line OCI-C5x (clear cell), technical replicate 1, how do the results read?
viability, normalised (%): 37; Call: active

Which result is listed for PRDM1 (GeneID 639), rucaparib or vehicle Vehicle, cell line OCI-C5x (clear cell), technical replicate 2?
viability, normalised (%): 30.1; Call: active

What is on record for PRDM1 (GeneID 639), rucaparib or vehicle Vehicle, cell line OCI-C5x (clear cell), technical replicate 3?
viability, normalised (%): 38.4; Call: active

What is on record for PRDM1 (GeneID 639), rucaparib or vehicle Vehicle, cell line OCI-P5x (serous), technical replicate 1?
viability, normalised (%): 61.7; Call: active

With PRDM1 (GeneID 639), rucaparib or vehicle Vehicle, cell line OCI-P5x (serous), technical replicate 2, what was measured?
viability, normalised (%): 63.2; Call: active

What did the screen give for PRDM1 (GeneID 639), rucaparib or vehicle Vehicle, cell line OCI-P5x (serous), technical replicate 3?
viability, normalised (%): 69; Call: active
